# Reference: the supplement of paper PMC11006884
# By UniProt entry, the sequences of proteins in these tests, tags left out. Where a name states a change or a piece, a line headed by the entry shows the natural chain unless it says otherwise.
# UniProt Q9BVI4: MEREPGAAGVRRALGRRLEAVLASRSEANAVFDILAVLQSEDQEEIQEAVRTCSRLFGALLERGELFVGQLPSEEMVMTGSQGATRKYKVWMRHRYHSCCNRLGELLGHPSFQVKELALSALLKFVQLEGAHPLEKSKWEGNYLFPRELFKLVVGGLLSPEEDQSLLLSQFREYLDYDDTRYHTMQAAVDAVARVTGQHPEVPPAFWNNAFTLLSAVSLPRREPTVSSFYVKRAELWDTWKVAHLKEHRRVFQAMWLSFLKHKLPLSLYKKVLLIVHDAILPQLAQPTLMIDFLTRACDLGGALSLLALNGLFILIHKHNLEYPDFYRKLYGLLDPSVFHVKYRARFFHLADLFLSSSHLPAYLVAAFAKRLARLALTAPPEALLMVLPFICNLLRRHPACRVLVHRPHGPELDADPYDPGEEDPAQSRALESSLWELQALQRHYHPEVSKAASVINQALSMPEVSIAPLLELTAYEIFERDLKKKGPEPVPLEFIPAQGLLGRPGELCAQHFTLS
# UniProt Q9BVQ7: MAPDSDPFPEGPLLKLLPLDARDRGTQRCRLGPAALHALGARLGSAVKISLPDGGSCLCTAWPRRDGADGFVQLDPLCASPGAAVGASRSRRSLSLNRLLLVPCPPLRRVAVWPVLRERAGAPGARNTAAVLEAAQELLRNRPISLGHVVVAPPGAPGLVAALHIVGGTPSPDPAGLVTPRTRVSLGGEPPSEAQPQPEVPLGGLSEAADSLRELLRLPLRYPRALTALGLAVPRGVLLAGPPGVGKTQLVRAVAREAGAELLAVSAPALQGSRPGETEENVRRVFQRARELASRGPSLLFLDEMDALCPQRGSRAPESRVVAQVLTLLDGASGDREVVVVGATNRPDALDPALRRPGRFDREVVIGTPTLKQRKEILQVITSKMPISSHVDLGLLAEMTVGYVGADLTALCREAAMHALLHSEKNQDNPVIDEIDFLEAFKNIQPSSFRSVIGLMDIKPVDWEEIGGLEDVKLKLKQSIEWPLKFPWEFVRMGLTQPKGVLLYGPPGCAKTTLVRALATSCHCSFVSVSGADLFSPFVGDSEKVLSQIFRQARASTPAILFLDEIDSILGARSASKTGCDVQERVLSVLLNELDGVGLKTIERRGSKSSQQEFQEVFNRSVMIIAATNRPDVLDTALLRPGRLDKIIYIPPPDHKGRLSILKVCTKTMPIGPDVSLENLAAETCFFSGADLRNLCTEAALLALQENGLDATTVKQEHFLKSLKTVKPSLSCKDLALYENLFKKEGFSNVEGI
# UniProt Q9BU76: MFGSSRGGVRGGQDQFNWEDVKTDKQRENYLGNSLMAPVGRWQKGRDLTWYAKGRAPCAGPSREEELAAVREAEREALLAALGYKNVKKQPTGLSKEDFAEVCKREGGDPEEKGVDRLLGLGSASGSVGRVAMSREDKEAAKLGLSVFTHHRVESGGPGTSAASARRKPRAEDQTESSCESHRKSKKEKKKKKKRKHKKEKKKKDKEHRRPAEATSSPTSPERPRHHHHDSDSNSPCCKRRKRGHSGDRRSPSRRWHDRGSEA
# UniProt Q9BWD1: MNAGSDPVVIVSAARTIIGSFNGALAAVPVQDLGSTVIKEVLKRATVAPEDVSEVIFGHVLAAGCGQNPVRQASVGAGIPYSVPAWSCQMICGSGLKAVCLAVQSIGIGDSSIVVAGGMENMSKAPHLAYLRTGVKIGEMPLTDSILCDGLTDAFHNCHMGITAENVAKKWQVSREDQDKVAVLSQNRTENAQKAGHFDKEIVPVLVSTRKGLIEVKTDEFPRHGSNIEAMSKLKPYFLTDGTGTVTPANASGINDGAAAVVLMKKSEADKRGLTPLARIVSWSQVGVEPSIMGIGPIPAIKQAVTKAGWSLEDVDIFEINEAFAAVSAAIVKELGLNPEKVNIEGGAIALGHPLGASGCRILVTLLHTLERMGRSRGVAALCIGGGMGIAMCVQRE
# UniProt Q9BSJ8: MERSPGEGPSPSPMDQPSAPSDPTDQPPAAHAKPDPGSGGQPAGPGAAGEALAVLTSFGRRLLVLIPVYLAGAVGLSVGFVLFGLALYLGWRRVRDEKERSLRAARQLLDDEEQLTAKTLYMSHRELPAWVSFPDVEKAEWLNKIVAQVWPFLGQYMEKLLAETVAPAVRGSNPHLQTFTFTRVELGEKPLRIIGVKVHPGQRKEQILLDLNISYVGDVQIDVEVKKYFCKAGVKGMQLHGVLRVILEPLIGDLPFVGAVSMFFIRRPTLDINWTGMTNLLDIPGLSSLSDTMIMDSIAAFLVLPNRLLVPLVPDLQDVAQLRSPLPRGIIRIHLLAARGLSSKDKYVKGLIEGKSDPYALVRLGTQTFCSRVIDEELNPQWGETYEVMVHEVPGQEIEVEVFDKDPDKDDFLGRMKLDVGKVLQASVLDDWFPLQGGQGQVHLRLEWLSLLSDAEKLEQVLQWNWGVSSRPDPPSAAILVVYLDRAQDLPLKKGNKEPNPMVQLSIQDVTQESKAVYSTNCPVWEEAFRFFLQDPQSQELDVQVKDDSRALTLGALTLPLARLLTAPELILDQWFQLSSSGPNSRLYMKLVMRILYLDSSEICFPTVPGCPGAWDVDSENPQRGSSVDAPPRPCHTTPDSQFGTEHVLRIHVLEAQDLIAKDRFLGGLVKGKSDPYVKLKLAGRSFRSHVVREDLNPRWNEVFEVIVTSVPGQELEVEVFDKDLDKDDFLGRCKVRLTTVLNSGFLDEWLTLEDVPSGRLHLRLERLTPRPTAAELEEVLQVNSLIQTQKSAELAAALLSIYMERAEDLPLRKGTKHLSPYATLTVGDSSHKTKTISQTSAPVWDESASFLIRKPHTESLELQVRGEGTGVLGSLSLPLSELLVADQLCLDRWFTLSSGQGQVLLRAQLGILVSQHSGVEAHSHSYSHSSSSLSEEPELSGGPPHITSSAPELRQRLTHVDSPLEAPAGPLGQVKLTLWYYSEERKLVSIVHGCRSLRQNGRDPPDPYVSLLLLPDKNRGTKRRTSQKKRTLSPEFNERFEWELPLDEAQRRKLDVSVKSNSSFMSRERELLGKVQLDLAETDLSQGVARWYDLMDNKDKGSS
# UniProt Q9BZI7: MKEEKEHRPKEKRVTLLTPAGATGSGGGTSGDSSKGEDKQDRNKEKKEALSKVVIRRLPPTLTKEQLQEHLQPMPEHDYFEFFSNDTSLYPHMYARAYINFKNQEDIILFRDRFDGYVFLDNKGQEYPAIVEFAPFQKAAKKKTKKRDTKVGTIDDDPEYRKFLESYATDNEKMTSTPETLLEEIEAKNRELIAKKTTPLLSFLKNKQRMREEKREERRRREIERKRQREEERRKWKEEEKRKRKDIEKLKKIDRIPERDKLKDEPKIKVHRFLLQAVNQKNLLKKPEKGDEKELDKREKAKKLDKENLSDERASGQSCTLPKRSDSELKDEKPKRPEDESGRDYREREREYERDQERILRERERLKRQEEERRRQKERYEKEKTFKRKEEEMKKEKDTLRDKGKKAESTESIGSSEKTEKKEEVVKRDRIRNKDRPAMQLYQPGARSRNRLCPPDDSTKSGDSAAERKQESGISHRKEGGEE
# UniProt Q9BYI3: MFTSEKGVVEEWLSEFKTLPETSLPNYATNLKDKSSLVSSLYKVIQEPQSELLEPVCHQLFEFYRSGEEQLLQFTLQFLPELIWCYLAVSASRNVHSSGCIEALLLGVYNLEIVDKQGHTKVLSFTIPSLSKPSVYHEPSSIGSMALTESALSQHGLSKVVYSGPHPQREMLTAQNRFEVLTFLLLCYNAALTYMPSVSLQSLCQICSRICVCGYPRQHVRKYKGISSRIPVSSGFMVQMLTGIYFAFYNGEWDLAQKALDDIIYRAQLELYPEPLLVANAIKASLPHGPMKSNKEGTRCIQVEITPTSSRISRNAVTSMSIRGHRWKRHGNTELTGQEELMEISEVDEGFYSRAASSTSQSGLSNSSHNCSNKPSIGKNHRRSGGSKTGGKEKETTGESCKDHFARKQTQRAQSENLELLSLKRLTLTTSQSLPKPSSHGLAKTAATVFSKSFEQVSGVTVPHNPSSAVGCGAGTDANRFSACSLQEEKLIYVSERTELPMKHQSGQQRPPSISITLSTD
# UniProt Q9BVG4: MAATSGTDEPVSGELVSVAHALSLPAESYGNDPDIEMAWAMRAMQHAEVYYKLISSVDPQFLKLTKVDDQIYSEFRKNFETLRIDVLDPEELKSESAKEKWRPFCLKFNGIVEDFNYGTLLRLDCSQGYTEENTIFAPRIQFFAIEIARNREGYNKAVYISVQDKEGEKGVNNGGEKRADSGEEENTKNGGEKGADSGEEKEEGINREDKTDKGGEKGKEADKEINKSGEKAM
# UniProt Q9BSJ2, whole entry: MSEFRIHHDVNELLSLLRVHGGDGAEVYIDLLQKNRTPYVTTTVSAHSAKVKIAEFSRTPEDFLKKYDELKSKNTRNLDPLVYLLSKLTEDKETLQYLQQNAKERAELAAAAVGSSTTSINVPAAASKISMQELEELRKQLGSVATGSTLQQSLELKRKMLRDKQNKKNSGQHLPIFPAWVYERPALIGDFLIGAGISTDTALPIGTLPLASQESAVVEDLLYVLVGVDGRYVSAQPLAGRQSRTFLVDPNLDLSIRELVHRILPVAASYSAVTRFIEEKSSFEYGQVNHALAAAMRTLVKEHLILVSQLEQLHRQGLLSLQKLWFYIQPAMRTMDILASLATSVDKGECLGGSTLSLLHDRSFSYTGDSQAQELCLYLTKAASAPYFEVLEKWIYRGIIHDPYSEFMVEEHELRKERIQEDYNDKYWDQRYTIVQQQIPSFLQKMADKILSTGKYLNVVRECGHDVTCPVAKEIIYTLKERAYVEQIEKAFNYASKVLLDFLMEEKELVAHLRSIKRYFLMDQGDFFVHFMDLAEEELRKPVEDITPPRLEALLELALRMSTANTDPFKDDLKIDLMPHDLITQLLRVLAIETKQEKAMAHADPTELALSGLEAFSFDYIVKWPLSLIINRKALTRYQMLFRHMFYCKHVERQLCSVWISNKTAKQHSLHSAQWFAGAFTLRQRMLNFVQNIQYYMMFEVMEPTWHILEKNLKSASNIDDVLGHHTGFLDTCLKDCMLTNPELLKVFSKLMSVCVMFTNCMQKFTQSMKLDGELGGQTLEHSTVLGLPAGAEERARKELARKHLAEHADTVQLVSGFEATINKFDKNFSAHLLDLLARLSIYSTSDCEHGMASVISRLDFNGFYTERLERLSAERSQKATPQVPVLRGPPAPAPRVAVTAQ
# UniProt Q9H2G2: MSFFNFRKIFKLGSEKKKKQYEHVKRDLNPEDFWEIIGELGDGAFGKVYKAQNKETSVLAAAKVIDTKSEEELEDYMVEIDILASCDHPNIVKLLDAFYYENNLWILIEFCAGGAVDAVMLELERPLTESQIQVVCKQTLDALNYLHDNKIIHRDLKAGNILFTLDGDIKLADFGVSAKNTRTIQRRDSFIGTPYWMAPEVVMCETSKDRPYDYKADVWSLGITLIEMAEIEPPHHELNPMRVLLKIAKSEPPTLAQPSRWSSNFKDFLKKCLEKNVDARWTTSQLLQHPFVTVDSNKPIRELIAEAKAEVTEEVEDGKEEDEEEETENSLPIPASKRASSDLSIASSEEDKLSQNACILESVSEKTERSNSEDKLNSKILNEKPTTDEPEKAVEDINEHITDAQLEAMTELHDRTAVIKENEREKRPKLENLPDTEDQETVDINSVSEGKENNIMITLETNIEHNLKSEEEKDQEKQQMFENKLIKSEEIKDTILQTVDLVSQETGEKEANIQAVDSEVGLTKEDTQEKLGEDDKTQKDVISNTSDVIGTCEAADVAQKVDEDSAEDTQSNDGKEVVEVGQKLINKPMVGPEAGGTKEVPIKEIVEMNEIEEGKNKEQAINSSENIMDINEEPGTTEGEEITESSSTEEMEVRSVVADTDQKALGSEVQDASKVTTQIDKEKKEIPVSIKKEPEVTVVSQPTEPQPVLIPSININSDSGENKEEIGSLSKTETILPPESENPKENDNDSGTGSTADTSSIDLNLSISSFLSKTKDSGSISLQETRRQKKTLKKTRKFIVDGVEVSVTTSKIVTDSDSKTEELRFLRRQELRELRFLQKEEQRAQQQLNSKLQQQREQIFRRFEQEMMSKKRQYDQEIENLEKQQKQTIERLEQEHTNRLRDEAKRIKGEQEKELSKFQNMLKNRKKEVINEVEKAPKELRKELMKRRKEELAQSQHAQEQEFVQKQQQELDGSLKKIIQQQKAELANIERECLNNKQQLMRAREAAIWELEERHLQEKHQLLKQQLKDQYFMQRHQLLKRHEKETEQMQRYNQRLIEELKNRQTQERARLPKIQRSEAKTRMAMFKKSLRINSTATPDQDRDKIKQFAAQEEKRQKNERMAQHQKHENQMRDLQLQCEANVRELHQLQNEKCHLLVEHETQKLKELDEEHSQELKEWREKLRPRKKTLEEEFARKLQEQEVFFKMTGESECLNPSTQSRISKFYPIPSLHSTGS
# UniProt Q9BSD7: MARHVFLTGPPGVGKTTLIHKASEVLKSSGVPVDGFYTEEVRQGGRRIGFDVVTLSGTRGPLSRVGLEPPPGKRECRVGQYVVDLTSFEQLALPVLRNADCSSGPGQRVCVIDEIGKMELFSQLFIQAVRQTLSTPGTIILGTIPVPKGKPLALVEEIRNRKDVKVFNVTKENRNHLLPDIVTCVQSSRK
# The list shows a part of the results, in another mix than the full data.
# Compound: COC(=O)C#Cc1ccccc1 [methyl 3-phenylpropiolate]
# Experiment: log2 ratio of iodoacetamide-alkyne labeling of the cysteine site, DMSO over compound (competition); higher = stronger covalent engagement of the cysteine by the compound, active = 1 or more
# Conditions: 500 µM; treatment time 1 h; system: HEK293T cell lysate
# In short: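 HEK293T lysate (2 mg/mL) was treated with DMSO or electrophile (500 µM, 1 h, ambient temperature), then iodoacetamide alkyne (1 h), clicked to sCIP-TMT reagents, pooled, trypsin-digested overnight at 37 °C, streptavidin-enriched and acid-eluted. Peptides were run on Orbitrap Eclipse LC-MS/MS with FAIMS and quantified in FragPipe. The log2 competition ratio per cysteine is mean control-channel over mean compound-channel reporter intensity. Duplicate channels and three replicates were used, and cysteines quantified in only one replicate were excluded.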
row,Target,log2 ratio of iodoacetamide-alkyne labeling
1,UniProt Q9H1B7_C504,inactive: 0.525
2,NOC4L C509 (UniProt Q9BVI4),inactive: 0.396
3,HNRNPUL1 C487 (UniProt Q9BUJ2),inactive: -0.108
4,UACA C994 (UniProt Q9BZF9),inactive: 0.315
5,TOLLIP C229 (UniProt Q9H0E2),inactive: 0.227
6,XPO4 C1149 (UniProt Q9C0E2),inactive: 0.048
7,SPATA5L1 C309 (UniProt Q9BVQ7),active: 1.11
8,UniProt Q9BU76_C179,inactive: 0.333
9,WDR18 C384 (UniProt Q9BV38),inactive: 0.328
10,NUDT9 C347 (UniProt Q9BW91),inactive: 0.139
11,NUDT9 C207 (UniProt Q9BW91),inactive: 0.129
12,CPPED1 C54 (UniProt Q9BRF8),active: 1.01
13,TNKS1BP1 C1296 (UniProt Q9C0C2),inactive: 0.451
14,LSG1 C455 (UniProt Q9H089),inactive: -0.0915
15,ACAT2 C92 (UniProt Q9BWD1),inactive: -0.0698
16,FANCD2 C758 (UniProt Q9BXW9),inactive: 0.39
17,TRMT61B C143 (UniProt Q9BVS5),inactive: 0.598
18,UniProt Q9BSJ8_C522,inactive: 0.823
19,MAF1 C88 (UniProt Q9H063),inactive: 0.737
20,REXO4 C382 (UniProt Q9GZR2),active: 1.23
21,UniProt Q9BXP5_C479,inactive: 0.0385
22,API5 C241 (UniProt Q9BZZ5),inactive: 0.652
23,SPATA5L1 C78 (UniProt Q9BVQ7),inactive: 0.204
24,UPF3B C453 (UniProt Q9BZI7),inactive: 0.248
25,FAM126A C300 (UniProt Q9BYI3),inactive: 0.174
26,TANC1 C1594 (UniProt Q9C0D5),active: 1.06

# Quoted from the listing.
# Under log2 ratio of iodoacetamide-alkyne labeling, MAF1 C88 (UniProt Q9H063) has the entry inactive: 0.737
# Under log2 ratio of iodoacetamide-alkyne labeling, XPO4 C1149 (UniProt Q9C0E2) has the entry inactive: 0.048

# Continuation.

row,Target,log2 ratio of iodoacetamide-alkyne labeling
1,UniProt Q9BVG4_C125,inactive: 0.454
2,MRPL4 C311 (UniProt Q9BYD3),inactive: 0.0294
3,UniProt Q9BYV8_C171,inactive: 0.361
4,GNB1L C116 (UniProt Q9BYB4),inactive: 0.259
5,GNL3 C156 (UniProt Q9BVP2),inactive: 0.0603
6,ZYG11B C643 (UniProt Q9C0D3),inactive: 0.222
7,TUBGCP2 C350 (UniProt Q9BSJ2),inactive: 0.175
8,CLPB C572 (UniProt Q9H078),inactive: 0.402
9,UniProt Q9BTT6_C432,inactive: 0.39
10,SLK C1138 (UniProt Q9H2G2),inactive: 0.0928
11,UniProt Q9BVL4_C629,inactive: 0.737
12,LMF2 C696 (UniProt Q9BU23),inactive: 0.735
13,ATG5 C19 (UniProt Q9H1Y0),inactive: 0.309
14,FYCO1 C882 (UniProt Q9BQS8),inactive: 0.192
15,EGLN1 C201 (UniProt Q9GZT9),inactive: 0.094
16,ACAT2 C148 (UniProt Q9BWD1),inactive: -0.138
17,KLC2 C474 (UniProt Q9H0B6),inactive: 0.252
18,SETD2 C1241 (UniProt Q9BYW2),inactive: 0.267
19,RBM4 C31 (UniProt Q9BWF3),inactive: 0.113
20,UPF3B C319 (UniProt Q9BZI7),inactive: 0.505
21,MRPL9 C221 (UniProt Q9BYD2),inactive: -0.201
22,UniProt Q9BSD7_C184,inactive: 0.0623
23,GNL3 C158 (UniProt Q9BVP2),inactive: 0.482
24,HNRNPUL1 C532 (UniProt Q9BUJ2),inactive: 0.22
25,DDX24 C746 (UniProt Q9GZR7),inactive: 0.433
26,UniProt Q9BTE3_C200,inactive: 0.528
